At least one structure is not confirmed: it was looked up by name or label, or the drawing left a doubt.
Test system: recombinant protein antigens from Plasmodium falciparum and Mycobacterium ulcerans
Assay: Pilot immunization study with adjuvanted protein antigens in mice
Format: in vivo
Settings: three s.c. immunizations, 20 micrograms antigen mixed with 10 nMol adjuvant; after the third immunization
Protocol: A pilot immunization study was conducted using Compound A and SC12 adjuvanted protein antigens. The immunization experiments were performed with two recombinant proteins expressed in E. coli. One antigen was derived from the malaria parasite Plasmodium falciparum and the other one from Mycobacterium ulcerans, which cause the ulcerative skin disease Buruli ulcer.

Q: Which “IgG responses against the target antigens” value does the source give for CCCCCCCC/C=C\CCCCCCCC(=O)OCC(COP(=O)(O)OCCNC(=O)c1ccc(Cn2c(=O)[nH]c3c(N)nc(OCCOC)nc32)cc1)OC(=O)CCCCCCC/C=C\CCCCCCCC (stereo not shown) [Compound A, 2-(4-((6-amino-2-(2-methoxyethoxy)-8-oxo-7H-purin-9(8H)-yl)methyl)benzamido)ethyl 2,3-bis(oleoyloxy)propyl phosphate] here?
A: developed IgG responses

— US9180183B2, “Phospholipid drug analogs” (Telormedix SA, priority 2010, dated 2015)
